Mtb growth Cornell: 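Whole-cell assay for inhibitors of Mycobacterium tuberculosis growth, labelled Cornell in the record; the read-out is not stated. The concentration is filed as 10 mM, unlikely as a test dose, so the dose is not known. The record gives no direction; compounds strong in two other growth screens of this library score well above the rest, so higher reads as stronger inhibition. Size under these conditions: about 53,000 compounds, about 900 of them at 50% or above in at least one test.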
Mtb heat-shock: 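Assay on Mycobacterium tuberculosis, filed only as a heat shock assay from Cornell; the read-out is not stated. The concentration is filed as 10 mM, unlikely as a test dose, so the dose is not known. Direction is inferred from retests: higher values go with stronger inhibition. Of about 69,000 compounds tested this way, about 930 (1.4%) reached 50% or more in at least one test.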

Each number is a percent effect as filed.
The record does not define 0% and 100%; most values in the screen are far below 50% and negative numbers occur (in some assays of this library far below -100).
Compounds were drawn at random from those tested, without regard to their results.
A dash means the value is not listed here; it may have been measured.

structure	Mtb growth Cornell	Mtb heat-shock
O=C(O)C(F)(F)F.c1cnc(N2CCOCC3(CN(Cc4nccs4)CCO3)C2)nc1 (stereo not given)	-23.39%	-1.695%
CCc1nc(C2CCCN2C(=O)c2ccc3c(c2)[nH]c(=O)n3C)no1 (stereo not given)	12.81%	-6.087%
CCN1CCN(Cc2nc(C)no2)CC1	-	-18.62%
CNC(=O)NC(=O)CNC(CC(F)(F)F)c1ccc(F)cc1 (stereo not given)	-29.21%	-21.35%
CC(NC(=O)c1ccoc1)C(=O)N(C)Cc1ccsc1 (stereo not given)	7.185%	3.944%
O=C(O)c1csc(S(=O)(=O)Nc2cccc(OC(F)F)c2)c1	17.82%	0.8736%
c1cncc(NCCCNC2CCSC2)c1 (stereo not given)	0.927%	-33.88%
CN(C)C(=O)c1nn(C)c2c1CN(Cc1ccoc1)C2	-58.11%	-52.54%
[H][C@]12CC[C@]([H])(CN(S(=O)(=O)N(C)C)C1)N(C(=O)c1cnc(C)cn1)C2	-34.09%	-2.541%
Cc1noc(C)c1NS(=O)(=O)c1cc(Cl)c(Cl)c(C(=O)O)c1	-	-12.81%
CSCCC(C)(O)CNS(=O)(=O)Cc1cccc(C)c1 (stereo not given)	1.987%	-26.22%
c1ccc(Cn2ccnc2CN2CCOC(Cn3cccn3)C2)cc1 (stereo not given)	-	-17.92%
Cc1occc1C(=O)Nc1cc(N2CCNC2=O)ccc1Cl	-	-20.37%
Cc1ccc(-c2ccnc(N3CCC4(CC3)CNC(=O)C4)n2)c(C)n1	-6.557%	-10.41%
COc1cc(F)ccc1-c1cc(CO)ccn1	22.95%	-26.28%
[H][C@@]12CS(=O)(=O)C[C@]1([H])N(Cc1nc3ccccc3[nH]1)CCN2C(=O)N(C)C	-8.193%	-23.03%
CCCn1c(C)c(CC(=O)NCCC(N)=O)c2c1CC(C)(C)CC2=O	-28.68%	-11.57%
O=S(=O)(NC1CCCCC12OCCO2)c1ccc2c(c1)OCCO2 (stereo not given)	44.93%	1.225%
CCNC(=O)[C@@H]1C[C@H](NC(=O)c2cncnc2C)CN1Cc1ccsc1	-9.009%	-33.03%
O=C(O)C(F)(F)F.O=C(O)C(F)(F)F.O=C(O)C(F)(F)F.c1ccc(NCc2cn3c(n2)CN(Cc2cccnc2)CC3)nc1	4.338%	2.185%
[H][C@@]12CCN(C(=O)c3cccnc3OC)C[C@@]1([H])O[C@H](C)C2	-	17.51%
CCOc1ccccc1-c1cc(N)[nH]n1.Cl	108.1%	-11.82%
CC(O)CCN(C)S(=O)(=O)Cc1ccc(Br)cc1 (stereo not given)	14.31%	-6.642%
CC(=O)N1CCCC(c2ccc(C(N)=O)cn2)C1 (stereo not given)	-68.76%	-5.227%
CN(C)c1cc(CNC(=O)c2ccccc2Cl)ccn1	-	-7.725%
CN(Cc1coc(-c2ccccc2)n1)CC1CCCN1c1cccnn1 (stereo not given)	-72.65%	7.112%
[H][C@]12CN(C(C)C)CCN1C(=O)N(C1CCCCC1)C2	-18.99%	-9.402%
COc1c(C2CCCN2Cc2nc(-c3ccco3)no2)c(C)nn1C (stereo not given)	-50.99%	0.4918%
CC(CN1CCC2(CC1)N=C(c1cccnc1)NC2=O)c1ccccc1 (stereo not given)	19.87%	-7.088%
Cc1cc(OCC(N)=O)ccc1NC(=O)C(C)Cc1ccccc1F (stereo not given)	9.521%	-1.71%
CCOCCCNC(=O)Cc1cccs1	6.169%	-10.83%
COc1ccc(CCNC(=O)c2ccc(=O)n(C)c2)c(Cl)c1	-	-0.6163%
COC(=O)c1ccc2nc(CO[C@H]3CN(CC4CC4)C[C@H]3F)[nH]c2c1	8.055%	-18.27%
CC(C)Nc1ncccc1C(=O)NCc1ncc[nH]1	21.23%	-17.56%
Cc1ccc(C(C)N(C)Cc2nc3c(cnn3C)c(=O)[nH]2)s1 (stereo not given)	-	59.53%
O=C(c1nn[nH]c1Nc1ccc(Cl)cc1)N1CCCCCC1	-	12.47%
Cc1cccc(-c2c[nH]c(C3CCCN3C(=O)c3cc(C)n[nH]3)n2)c1 (stereo not given)	5.597%	-36.1%
[H][C@]12CC=C(CN3CCCn4nc(C(=O)O)cc4C3)[C@]([H])(C1)C2(C)C	10.23%	-7.05%
CNc1cc(C2CCCN2Cc2ccc(OCC(=O)O)cc2)ccn1 (stereo not given)	-0.3559%	-1.807%
CN1CCC2(CC1)CN(C(=O)c1cccnc1)Cc1ccccc12	-23.1%	-20.68%
Brc1ccc(NCCCOC2CCOCC2)nc1	-	15.91%
O=C1OCCC1N1CCN(c2ccc(O)cc2)CC1 (stereo not given)	-	-13.74%

Repeated from the top, 3 entries:

{"structure": "O=C(O)C(F)(F)F.c1cnc(N2CCOCC3(CN(Cc4nccs4)CCO3)C2)nc1", "stereo": "stereo not given", "Mtb growth Cornell": -23.39, "Mtb heat-shock": -1.695}
{"structure": "CCc1nc(C2CCCN2C(=O)c2ccc3c(c2)[nH]c(=O)n3C)no1", "stereo": "stereo not given", "Mtb growth Cornell": 12.81, "Mtb heat-shock": -6.087}
{"structure": "CCN1CCN(Cc2nc(C)no2)CC1", "Mtb heat-shock": -18.62}

The values are deposited in ChEMBL (CHEMBL3988442, “University of Dundee, Small-Polar-MMV Screening Library” (2021)).